## Results of single-concentration screens

By UniProt entry, the sequences of proteins in these tests, tags left out. Residues count along the entry.
UniProt Q8IDJ8, 1-583: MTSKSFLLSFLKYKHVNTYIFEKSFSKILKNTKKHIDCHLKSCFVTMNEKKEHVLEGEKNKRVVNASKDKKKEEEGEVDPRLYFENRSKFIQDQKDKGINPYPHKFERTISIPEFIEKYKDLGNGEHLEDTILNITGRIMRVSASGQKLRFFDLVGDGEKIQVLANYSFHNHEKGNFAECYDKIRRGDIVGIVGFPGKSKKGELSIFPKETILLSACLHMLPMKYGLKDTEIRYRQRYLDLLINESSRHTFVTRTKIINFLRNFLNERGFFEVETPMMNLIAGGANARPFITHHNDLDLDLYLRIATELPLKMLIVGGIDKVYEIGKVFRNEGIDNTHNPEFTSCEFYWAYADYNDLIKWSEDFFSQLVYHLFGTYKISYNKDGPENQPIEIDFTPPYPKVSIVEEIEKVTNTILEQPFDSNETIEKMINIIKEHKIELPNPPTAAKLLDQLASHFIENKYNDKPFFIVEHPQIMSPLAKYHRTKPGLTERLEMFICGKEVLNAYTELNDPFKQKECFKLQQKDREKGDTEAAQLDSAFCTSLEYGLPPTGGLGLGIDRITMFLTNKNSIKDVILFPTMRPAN
UniProt A4I591, 1-473: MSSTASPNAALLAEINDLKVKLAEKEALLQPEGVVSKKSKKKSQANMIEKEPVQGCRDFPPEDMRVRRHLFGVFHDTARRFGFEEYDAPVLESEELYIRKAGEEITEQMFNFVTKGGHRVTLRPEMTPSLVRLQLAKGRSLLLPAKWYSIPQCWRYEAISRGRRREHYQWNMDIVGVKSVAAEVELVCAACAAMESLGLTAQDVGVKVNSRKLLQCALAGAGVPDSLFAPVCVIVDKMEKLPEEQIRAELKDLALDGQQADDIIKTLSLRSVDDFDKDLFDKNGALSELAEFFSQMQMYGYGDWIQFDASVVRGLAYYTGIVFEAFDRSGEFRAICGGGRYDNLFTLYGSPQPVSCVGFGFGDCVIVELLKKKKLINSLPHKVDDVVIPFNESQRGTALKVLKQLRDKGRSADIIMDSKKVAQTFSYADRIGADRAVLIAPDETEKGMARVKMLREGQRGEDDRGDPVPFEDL
UniProt Q4DA54, 1-478: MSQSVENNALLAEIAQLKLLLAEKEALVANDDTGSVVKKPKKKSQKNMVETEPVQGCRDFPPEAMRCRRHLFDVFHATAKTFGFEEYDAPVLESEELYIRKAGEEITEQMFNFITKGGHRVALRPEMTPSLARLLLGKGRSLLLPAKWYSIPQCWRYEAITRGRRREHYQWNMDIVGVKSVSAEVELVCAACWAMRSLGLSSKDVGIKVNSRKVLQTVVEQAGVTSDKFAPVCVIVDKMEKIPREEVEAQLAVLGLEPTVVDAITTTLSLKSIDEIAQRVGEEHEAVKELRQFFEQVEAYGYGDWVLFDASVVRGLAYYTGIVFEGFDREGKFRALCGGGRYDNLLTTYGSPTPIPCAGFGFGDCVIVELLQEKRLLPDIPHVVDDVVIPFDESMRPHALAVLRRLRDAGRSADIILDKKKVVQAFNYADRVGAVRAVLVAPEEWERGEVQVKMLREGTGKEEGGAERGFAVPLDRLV
UniProt P9WPC5, whole entry: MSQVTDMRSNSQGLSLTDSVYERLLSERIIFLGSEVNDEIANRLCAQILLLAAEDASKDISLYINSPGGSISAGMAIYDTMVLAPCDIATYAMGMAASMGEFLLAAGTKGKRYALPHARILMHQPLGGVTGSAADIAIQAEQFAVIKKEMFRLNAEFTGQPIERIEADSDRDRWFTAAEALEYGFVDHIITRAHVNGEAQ
UniProt P9WPC3, whole entry partner: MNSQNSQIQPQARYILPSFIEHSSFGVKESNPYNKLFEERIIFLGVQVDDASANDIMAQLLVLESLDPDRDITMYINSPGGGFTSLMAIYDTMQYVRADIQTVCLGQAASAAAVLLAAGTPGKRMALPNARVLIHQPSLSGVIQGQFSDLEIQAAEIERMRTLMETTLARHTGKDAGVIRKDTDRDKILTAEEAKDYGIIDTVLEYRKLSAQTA

Data taken from ChEMBL document CHEMBL3988442, “University of Dundee, Small-Polar-MMV Screening Library” (2021).

PfKRS1: 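Lysine-tRNA ligase, Plasmodium falciparum 3D7 (UniProt Q8IDJ8). Enzyme assay of the cytosolic lysyl-tRNA synthetase in 384-well plates, read by luminescence. Concentration: 30 µM. Direction is inferred from only a few compounds that gave an IC50; most scored high, so higher reads as stronger inhibition. About 69,000 compounds were tested under these conditions; 0.071% (about 49) showed 50% or more at least once.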
LiHisRS: 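Enzyme assay of histidyl-tRNA synthetase; the read-out is not stated. Target: Histidine-tRNA ligase, Leishmania infantum (UniProt A4I591). Compounds at 30 µM. Direction is inferred from retests: higher values go with stronger inhibition. The assay is labelled LdHisRS but filed under L. infantum. Of about 69,000 compounds tested this way, about 410 (0.6%) reached 50% or more in at least one test.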
TcHisRS: 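Histidine-tRNA ligase, Trypanosoma cruzi CL Brener (UniProt Q4DA54). Enzyme assay of histidyl-tRNA synthetase; the read-out is not stated. Concentration: 30 µM. The record gives no direction; compounds that gave an IC50 in retests scored well above the rest, so higher reads as stronger inhibition. About 69,000 compounds were tested under these conditions; 0.045% (about 31) showed 50% or more at least once.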
Leishmania in macrophages: 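Cell assay of Leishmania donovani living inside macrophages; the read-out is not stated. Tested at 30 µM. The record gives no direction; compounds that gave an IC50 in retests scored well above the rest, so higher reads as stronger inhibition. Size under these conditions: about 69,000 compounds, about 1,000 of them at 50% or above in at least one test.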
ClpP1P2: 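ClpP1P2, Mycobacterium tuberculosis (UniProt P9WPC5 and UniProt P9WPC3). Protease assay of ClpP1P2, read by the AMC dye that it sets free. Concentration: 50 µM. Direction is inferred from only a few compounds that gave an IC50; most scored high, so higher reads as stronger inhibition. Most other retested compounds had strongly negative values. Of about 69,000 compounds tested this way, about 10 (0.015%) reached 50% or more in at least one test.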

Results are given as percent effect. The record does not define 0% and 100%; most values in the screen are far below 50% and negative numbers occur (in some assays of this library far below -100). Compounds were drawn at random from those tested, without regard to their results. A dash means the value is not listed here; it may have been measured.

| # | Compound | PfKRS1 | LiHisRS | TcHisRS | Leishmania in macrophages | ClpP1P2 |
|---|---|---|---|---|---|---|
| 1 | `CCS(=O)(=O)N1CCC2(CCN(Cc3cccc(OC)c3)CC2)CC1.O=C(O)C(F)(F)F` | - | - | - | 1.813 | - |
| 2 | `Cn1ccc2cc(C(=O)N3CCOCC3)ccc21` | 2.041 | -8.333 | -1.02 | 13.47 | 4.84 |
| 3 | `COCCNC(=O)[C@H]1C[C@@H]2CCN(c3nncs3)C[C@H]2O1` | 0.4697 | 5.769 | 4.813 | - | -1.331 |
| 4 | `Cc1cc(C)c(CNC(=O)C2CCN(c3cnccn3)CC2)c(=O)[nH]1` | 0.4803 | 11.01 | 3.529 | -4.664 | -23.97 |
| 5 | `Cc1nnc(CN2CCC(c3nc4cc(Cl)ccc4o3)CC2)n1C` | 7.12 | 12.24 | 11.28 | 15.3 | 7.04 |
| 6 | `Cc1noc(C2CCCN(C(=O)c3ccc(F)cc3F)C2)n1` (stereo unspecified) | 6.47 | 3.306 | -4.202 | -6.85 | -0.03393 |
| 7 | `Cc1cc(CNC(=O)CCCN2CCCCC2)n(C)n1` | -2.523 | 11.9 | 12.94 | 0.6384 | -13.35 |
| 8 | `COc1ccccc1OCC(=O)Nc1ncccc1OC(F)F` | 5.617 | 12.5 | 0.813 | -12.66 | -12.28 |
| 9 | `Cc1occc1C(=O)N1CCCC2(CCN(CCN3CCCC3)C2=O)C1` (stereo unspecified) | 2.736 | -2.83 | -10.88 | - | 2.064 |
| 10 | `CCN1CCc2c(cccc2NC(=O)CN(C)C2CCSC2)C1` (stereo unspecified) | 2.909 | 0 | 2.924 | 20.61 | -1.589 |
| 11 | `Cc1ccc(N2CCC3(CC2)CC(OCC(=O)N(C)C)CO3)nn1` (stereo unspecified) | -2.503 | 16.54 | 4.972 | 10.68 | -5.803 |
| 12 | `CN1C(=O)c2cccc(NC(=O)c3cccc(S(C)(=O)=O)c3)c2C1=O` | 3.231 | 17.2 | 8.808 | 8.611 | 16.92 |
| 13 | `[H][C@@]12CN(C(=O)C3CCOCC3)C[C@@]1([H])N(CC1CC1)C(=O)CO2` | - | - | - | -21.27 | - |
| 14 | `Cn1c(C2CC2)nc2cc(NC(=O)C3(O)CCCC3)ccc21` | 7.369 | 22.58 | 0.6494 | 26.02 | -0.4797 |
| 15 | `O=C(O)C(F)(F)F.[H][C@@]12CCN(Cc3ccc(C)o3)C[C@@]1([H])[C@H](C(=O)NC1CC1)CCO2` | - | - | - | 13.8 | - |
| 16 | `Cc1cc(C(N)=O)ccc1NC(=O)c1nc(N2CCCCC2)ncc1Cl` | 1.925 | 6.061 | 2.174 | -9.664 | 9.958 |
| 17 | `CCC1c2ccsc2CCN1C(=O)NCc1cc[nH]n1` (stereo unspecified) | -0.02344 | -2.128 | 4.58 | 16.05 | 9.977 |
| 18 | `CC(C)NC(=O)NC[C@H]1OC[C@@H](NCc2ccncc2)[C@@H]1O` | 6.436 | 13.89 | 0.4975 | 6.534 | -5.859 |
| 19 | `O=C(c1ccccn1)N1CCc2nc(-c3cnccn3)nc(O)c2C1` | 1.102 | 16.67 | 0.5405 | -5.467 | 11.75 |
| 20 | `O=C(NC1CC1)[C@H]1CC[C@@H]2[C@@H](CCN2c2ncc(F)cn2)O1` | 1.138 | 4.717 | -1.674 | - | -6.167 |
| 21 | `NC(=O)C(NC(=O)Cc1cnn(-c2ccccc2)n1)c1ccccc1` (stereo unspecified) | 4.188 | 10.96 | 4.372 | 23.63 | -6.555 |
| 22 | `Cc1oc(C)c(C(=O)Nc2ccccn2)c1C` | 10.6 | 32.89 | 3.448 | 0.1995 | -2.803 |
| 23 | `CCN(CC)S(=O)(=O)c1cc(Br)ccc1OC` | 3.019 | 9.326 | 9.392 | 9.695 | 9.168 |
| 24 | `CN(C)Cc1csc(-c2nccn2CCc2cccnc2)c1` | 5.347 | 15.79 | 2.793 | 22.97 | -14.72 |
| 25 | `CCNC(=O)CN(CC)S(=O)(=O)c1c(Br)cc2[nH]c(=O)oc2c1Cl` | 3.538 | 7.853 | 3.743 | 26.48 | -2.541 |
| 26 | `OCc1n[nH]c(-c2ccc(F)cc2)n1` | 3.117 | 15.05 | 1.554 | 1.346 | 22.45 |
| 27 | `CC(C)=CCC1(CO)CCCN(Cc2cnc(N3CCOCC3)nc2)C1` (stereo unspecified) | 2.679 | 6.806 | 8.021 | 10.39 | -4.883 |
| 28 | `COCCC1(CO)CCCN(C(=O)c2cc(C#N)c(=O)[nH]c2C)C1` (stereo unspecified) | 2.159 | -25.64 | 3.448 | -46.03 | -1.544 |
| 29 | `O=C(O)C(F)(F)F.[H][C@@]12CCN(C(=O)c3ccc[nH]3)C[C@]1([H])[C@@H](CN(C)C)OC2` | - | - | - | 22.19 | - |
| 30 | `O=C(NCCNc1ncccn1)N1CCN(Cc2cccnc2)CC1` | -9.777 | 23.81 | -1.504 | -6.115 | 4.655 |
| 31 | `CN(C)CCN1CCC2(CCCN(Cc3cccn3C)C2)C1=O.O=C(O)C(F)(F)F.O=C(O)C(F)(F)F` (stereo unspecified) | - | - | - | 33.41 | - |
| 32 | `CC(C)(N)c1cn(C2CCN(C(=O)CCC3CCCCC3)CC2)nn1` | 9.273 | -0.8333 | -5.797 | -0.07916 | -35.26 |
| 33 | `O=C(CCCn1cncn1)NC1CCc2nccn2C1` (stereo unspecified) | -0.8982 | 0.8929 | 2.312 | -24.78 | -9.403 |
| 34 | `COC1(CNS(=O)(=O)c2ccccc2Cl)CCSC1` (stereo unspecified) | -0.09162 | 12.82 | 4.444 | 20.09 | 0.6376 |
| 35 | `CCN(C)Cc1n[nH]c(=O)n1-c1ccc(C)c(C)c1` | 3.353 | 19.58 | 13.43 | 5.053 | 10.98 |
| 36 | `Cl.Cl.c1cnc(NCc2cncc3c2CCN(Cc2cccs2)C3)nc1` | - | - | - | 14.41 | - |

The last 3 entries again:

Compound	PfKRS1	LiHisRS	TcHisRS	Leishmania in macrophages	ClpP1P2
COC1(CNS(=O)(=O)c2ccccc2Cl)CCSC1 (stereo unspecified)	-0.09162	12.82	4.444	20.09	0.6376
CCN(C)Cc1n[nH]c(=O)n1-c1ccc(C)c(C)c1	3.353	19.58	13.43	5.053	10.98
Cl.Cl.c1cnc(NCc2cncc3c2CCN(Cc2cccs2)C3)nc1	-	-	-	14.41	-